Results as given in patent US12134617B1, “Pyrimido[1′6′:1,5]pyrazolo[4,3-c][1,7]naphthyridines as CK2 inhibitors” (KING FAISAL UNIVERSITY, priority 2024, dated 2024).

Tests used:
Type in all cases: cell-based
PC3 (prostate) = assay: In vitro cytotoxic activity (MTT) assay, PC3; conditions: Homo sapiens, PC-3; PC3 cells, exposed for 96 hours, 50% inhibition of cell proliferation; read-out: Cytotoxicity activity IC50, PC3 (prostate)
Experimental: (§1) In Vitro Cytotoxic Activity Assay
(§2) Compounds 1-16 were screened for their in vitro cytotoxic activity utilizing a 3-(4,5-dimethyl-thiazol-2-yl)-2,5-diphenyltetrazolium bromide (MTT) assay against selected cancer human cell lines consisting of PC3 (prostate), HCT116 (colon), A375 (melanoma), H1299 (lung), MIAPaCa-2 (pancreas), HL60 (leukemia), MCF7 (breast), MDA-MB-231 (breast) (T. Mosmann, J. Immunol. Meth., 1983, 65, 55-63). The cells were cultured at 37° C. in RMPI1640 medium supplemented with 10% fetal bovine serum, 50 IU/mL penicillin, and 50 μg/mL streptomycin in a 5% CO2 incubator. All cells were sub-cultured 3 times/week by trypsinisation. Viable cells were seeded and allowed to adhere for 12 hours before a test drug was added in 96-well plates at an initial density of 1.0×10^5 cells/mL. Tumor cell lines were separately exposed to various concentrations of the tested compounds followed by incubation at a temperature of 37° C. during 96 hours inside a medium of fresh RMPI 1640. Cells were subsequently incubated at 37° C. using MTT at 0.5 mg/mL during 4 hours. After removal of supernatant, formazan crystals were dissolved in isopropanol and the optical density was measured at 570 nm. CX-4945 was used as a positive control.

HCT116 (colon) = assay: In vitro cytotoxic activity (MTT) assay, HCT116; conditions: Homo sapiens, HCT-116; HCT116 cells, exposed for 96 hours, 50% inhibition of cell proliferation; read-out: Cytotoxicity activity IC50, HCT116 (colon)
Experimental: as §1, §2

A375 (melanoma) = assay: In vitro cytotoxic activity (MTT) assay, A375; conditions: Homo sapiens, A-375; A375 cells, exposed for 96 hours, 50% inhibition of cell proliferation; read-out: Cytotoxicity activity IC50, A375 (melanoma)
Experimental: as §1, §2

H1299 (lung) = assay: In vitro cytotoxic activity (MTT) assay, H1299; conditions: Homo sapiens, NCI-H1299; H1299 cells, exposed for 96 hours, 50% inhibition of cell proliferation; read-out: Cytotoxicity activity IC50, H1299 (lung)
Experimental: as §1, §2

MIAPaCa-2 (pancreas) = assay: In vitro cytotoxic activity (MTT) assay, MIAPaCa-2; conditions: Homo sapiens, MIA PaCa-2; MIAPaCa-2 cells, exposed for 96 hours, 50% inhibition of cell proliferation; read-out: Cytotoxicity activity IC50, MIAPaCa-2 (pancreas)
Experimental: as §1, §2

HL60 (leukemia) = assay: In vitro cytotoxic activity (MTT) assay, HL60; conditions: Homo sapiens, HL-60; HL60 cells, exposed for 96 hours, 50% inhibition of cell proliferation; read-out: Cytotoxicity activity IC50, HL60 (leukemia)
Experimental: as §1, §2

MCF7 (breast) = assay: In vitro cytotoxic activity (MTT) assay, MCF7; conditions: Homo sapiens; MCF7 cells, exposed for 96 hours, 50% inhibition of cell proliferation; read-out: Cytotoxicity activity IC50, MCF7 (breast)
Experimental: as §1, §2

MDA-MB-231 (breast) = assay: In vitro cytotoxic activity (MTT) assay, MDA-MB-231; conditions: Homo sapiens; MDA-MB-231 cells, exposed for 96 hours, 50% inhibition of cell proliferation; read-out: Cytotoxicity activity IC50, MDA-MB-231 (breast)
Experimental: as §1, §2

`O=C(O)c1ccc2c(c1)nc(Nc1cccc(Cl)c1)c1ccncc12` [CX-4945, reference compound] was tested, and the IC50 (PC3 (prostate)) was 2 µM, the IC50 (HCT116 (colon)) was 2.3 µM and the IC50 (A375 (melanoma)) was 4.1 µM. It also gave an IC50 (H1299 (lung)) of 2.3 µM, an IC50 (MIAPaCa-2 (pancreas)) of 1 µM and an IC50 (HL60 (leukemia)) of 3.7 µM. The IC50 (MCF7 (breast)) was 9.1 µM and the IC50 (MDA-MB-231 (breast)) was 6.2 µM.
